Substitutions are numbered along the chain they refer to. Results are given in words; binding and its absence hold for the method and conditions named. Some binding calls cover weakened binding; strength is not graded here. Each block holds one binder with its values, some of them ahead of it.
Assays:
[1] = target: T1, recombinant CTLD-2 domain of the DEC-205 receptor of Gallus gallus (Gallus gallus); experiment: indirect ELISA
T1 sequence: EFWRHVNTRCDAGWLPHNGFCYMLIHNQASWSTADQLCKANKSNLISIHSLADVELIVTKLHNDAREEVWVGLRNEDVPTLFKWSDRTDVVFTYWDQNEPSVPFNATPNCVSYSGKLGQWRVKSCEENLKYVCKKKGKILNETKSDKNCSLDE

The chains behind the UniProt entries cited, without tags or fusion partners. Where a name states a change or a piece, a line headed by the entry shows the natural chain unless it says otherwise. A line that says so, or that is headed by a name, gives the form on record, which may keep a tag or linker. Residues count along the entry.
UniProt O60449, residues 28-1722: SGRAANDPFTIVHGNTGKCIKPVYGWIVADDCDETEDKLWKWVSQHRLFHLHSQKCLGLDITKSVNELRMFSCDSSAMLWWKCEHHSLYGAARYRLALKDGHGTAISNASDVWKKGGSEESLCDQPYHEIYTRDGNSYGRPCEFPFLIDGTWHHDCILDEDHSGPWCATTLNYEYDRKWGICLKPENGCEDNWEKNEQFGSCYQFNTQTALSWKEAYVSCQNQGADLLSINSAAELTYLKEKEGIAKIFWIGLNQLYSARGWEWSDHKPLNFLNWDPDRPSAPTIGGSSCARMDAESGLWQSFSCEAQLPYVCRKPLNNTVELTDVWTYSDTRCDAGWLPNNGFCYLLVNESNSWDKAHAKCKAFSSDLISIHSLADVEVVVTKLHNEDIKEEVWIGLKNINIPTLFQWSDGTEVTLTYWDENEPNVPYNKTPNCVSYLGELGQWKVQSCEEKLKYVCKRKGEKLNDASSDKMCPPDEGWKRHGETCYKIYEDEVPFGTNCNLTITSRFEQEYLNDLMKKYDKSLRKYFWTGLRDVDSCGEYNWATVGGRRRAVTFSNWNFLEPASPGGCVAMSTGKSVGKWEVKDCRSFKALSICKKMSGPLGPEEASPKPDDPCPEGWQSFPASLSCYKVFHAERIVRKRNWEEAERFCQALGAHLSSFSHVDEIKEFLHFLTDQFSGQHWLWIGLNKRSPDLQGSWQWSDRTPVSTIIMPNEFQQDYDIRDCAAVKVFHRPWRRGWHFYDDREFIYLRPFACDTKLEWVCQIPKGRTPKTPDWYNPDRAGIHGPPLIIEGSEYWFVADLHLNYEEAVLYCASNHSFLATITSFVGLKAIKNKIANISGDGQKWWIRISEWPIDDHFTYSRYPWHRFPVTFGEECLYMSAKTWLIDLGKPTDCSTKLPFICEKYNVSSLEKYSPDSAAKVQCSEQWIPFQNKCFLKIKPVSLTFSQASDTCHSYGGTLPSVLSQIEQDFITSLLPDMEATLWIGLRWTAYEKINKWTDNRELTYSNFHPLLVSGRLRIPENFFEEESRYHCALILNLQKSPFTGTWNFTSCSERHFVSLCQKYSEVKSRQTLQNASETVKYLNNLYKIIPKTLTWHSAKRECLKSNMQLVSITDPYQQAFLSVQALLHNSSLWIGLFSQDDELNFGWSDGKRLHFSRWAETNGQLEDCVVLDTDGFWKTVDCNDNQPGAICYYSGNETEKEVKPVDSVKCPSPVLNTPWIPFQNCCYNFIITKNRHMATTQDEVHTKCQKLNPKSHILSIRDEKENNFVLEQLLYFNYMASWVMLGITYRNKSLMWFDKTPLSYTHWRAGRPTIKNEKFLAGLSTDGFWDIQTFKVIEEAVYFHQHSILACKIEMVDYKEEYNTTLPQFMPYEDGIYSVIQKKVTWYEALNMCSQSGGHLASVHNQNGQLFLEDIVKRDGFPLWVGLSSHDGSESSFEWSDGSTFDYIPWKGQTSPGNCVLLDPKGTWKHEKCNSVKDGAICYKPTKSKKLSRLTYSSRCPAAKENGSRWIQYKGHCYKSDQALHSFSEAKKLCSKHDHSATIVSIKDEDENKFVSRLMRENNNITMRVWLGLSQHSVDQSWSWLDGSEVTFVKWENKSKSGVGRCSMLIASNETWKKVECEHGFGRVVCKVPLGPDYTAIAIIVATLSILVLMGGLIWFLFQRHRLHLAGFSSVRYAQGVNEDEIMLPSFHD
DEC-205 receptor of Sus scrofa (D6MT50, form named): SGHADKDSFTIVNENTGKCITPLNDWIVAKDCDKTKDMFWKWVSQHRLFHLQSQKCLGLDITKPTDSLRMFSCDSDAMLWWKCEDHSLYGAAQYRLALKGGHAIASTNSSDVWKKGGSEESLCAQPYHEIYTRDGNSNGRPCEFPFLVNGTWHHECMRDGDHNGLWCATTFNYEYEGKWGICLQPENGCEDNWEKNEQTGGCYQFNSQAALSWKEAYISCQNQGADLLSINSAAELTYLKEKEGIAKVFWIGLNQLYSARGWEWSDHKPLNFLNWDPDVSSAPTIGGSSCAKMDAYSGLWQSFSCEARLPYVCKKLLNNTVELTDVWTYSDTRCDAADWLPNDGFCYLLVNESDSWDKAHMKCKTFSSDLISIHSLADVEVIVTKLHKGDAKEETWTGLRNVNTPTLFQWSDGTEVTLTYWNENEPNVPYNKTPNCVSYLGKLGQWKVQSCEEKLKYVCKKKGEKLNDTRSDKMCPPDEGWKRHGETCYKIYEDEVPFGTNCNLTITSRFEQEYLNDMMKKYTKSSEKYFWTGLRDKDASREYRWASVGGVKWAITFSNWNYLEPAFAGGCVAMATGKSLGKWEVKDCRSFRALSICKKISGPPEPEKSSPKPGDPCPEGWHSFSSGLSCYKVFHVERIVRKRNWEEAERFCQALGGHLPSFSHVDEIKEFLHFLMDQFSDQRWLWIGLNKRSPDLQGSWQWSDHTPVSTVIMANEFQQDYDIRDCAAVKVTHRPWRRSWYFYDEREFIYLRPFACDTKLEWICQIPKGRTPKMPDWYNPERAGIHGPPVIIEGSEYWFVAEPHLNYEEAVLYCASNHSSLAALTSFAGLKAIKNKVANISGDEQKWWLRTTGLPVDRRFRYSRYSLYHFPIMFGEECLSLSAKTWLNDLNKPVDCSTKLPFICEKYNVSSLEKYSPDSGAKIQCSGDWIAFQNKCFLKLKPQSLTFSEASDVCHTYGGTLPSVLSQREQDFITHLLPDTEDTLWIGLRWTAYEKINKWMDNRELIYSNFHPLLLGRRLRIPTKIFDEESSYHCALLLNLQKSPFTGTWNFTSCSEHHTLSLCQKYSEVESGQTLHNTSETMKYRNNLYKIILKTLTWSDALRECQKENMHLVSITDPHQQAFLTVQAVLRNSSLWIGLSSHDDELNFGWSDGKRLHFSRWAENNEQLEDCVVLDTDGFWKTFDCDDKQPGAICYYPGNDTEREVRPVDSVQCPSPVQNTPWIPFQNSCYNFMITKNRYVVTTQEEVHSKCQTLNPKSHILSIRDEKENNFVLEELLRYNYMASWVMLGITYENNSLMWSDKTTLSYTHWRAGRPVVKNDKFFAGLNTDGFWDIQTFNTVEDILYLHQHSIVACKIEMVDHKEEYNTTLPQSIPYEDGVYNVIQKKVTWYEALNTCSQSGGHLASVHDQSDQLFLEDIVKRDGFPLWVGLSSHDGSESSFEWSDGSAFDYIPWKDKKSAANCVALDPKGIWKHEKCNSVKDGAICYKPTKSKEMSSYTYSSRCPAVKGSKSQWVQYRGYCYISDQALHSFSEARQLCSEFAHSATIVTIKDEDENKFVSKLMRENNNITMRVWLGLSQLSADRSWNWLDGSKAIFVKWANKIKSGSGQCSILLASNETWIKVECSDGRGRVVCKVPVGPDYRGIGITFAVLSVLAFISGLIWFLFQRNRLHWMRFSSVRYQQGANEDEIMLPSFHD

[2] = target: DEC-205 receptor of Homo sapiens (Homo sapiens) (UniProt O60449); experiment: immunoprecipitation
[3] = target: DEC-205 receptor of Sus scrofa (Sus scrofa) (UniProt D6MT50); experiment: immunoprecipitation
[4] = target: T1, recombinant CTLD-2 domain of the DEC-205 receptor of Gallus gallus (Gallus gallus); experiment: indirect ELISA on plate-coated CTLD-2
[5] = target: DEC-205 receptor of Homo sapiens (Homo sapiens) (UniProt O60449); experiment: immunoprecipitation from Jurkat cell lysate, SDS-PAGE
[6] = target: DEC-205 receptor of Sus scrofa (Sus scrofa) (UniProt D6MT50); experiment: immunoprecipitation from pig spleen white cell lysate, SDS-PAGE
[7] = target: DEC-205 receptor of Homo sapiens (Homo sapiens) (UniProt O60449); experiment: intracellular staining of fixed, permeabilized Jurkat cells, flow cytometry, 26.7 µg/mL antibody

- binding [1]: binds
- binding [2]: binds
- binding [3]: binds
- binding [4]: binds
- binding [5]: binds
- binding [6]: binds
- binding [7]: binds
B1: murine monoclonal antibody 2F2E8E3B6 anti-CTLD-2 (antibody, IgG2a, V domains shown)
VH: EVQLQQSTAEFVKPGASVKLSCTASGFNIKDTYIHWVKQRPEQGLEWIGRIDPANGNTRYDPKFQGKATMTADTSSNTAYLQLSSLTSEDTAVYYCARYDVTYWGQGTLVTVS
VL: DIVMSQSPSSLAVSAGERVTMSCKSSQSLLNSRTRKNYLAWYQQKPGQSPKLLIYWASTRESGVPDRFTGSGSGTDFTLTISSVRAEDLAVYYCKQSYNLYTFGRGTKLEIK
notes: also called 2F2E8D3B6; AbM 2F2E8E3B6

- binding [1]: binds
B2: monoclonal antibody 4D12R (antibody, IgG1, V domains shown)
VH: B1 VH with T8G, E10D, F11L
VL: B1 VL with D1E, M4L, S5T, P8I, S9A, A12T, R85Q, R105G

Source: patent US20160347841A1 (UNIVERSIDAD NACIONAL AUT NOMA DE M XICO, published 2016)
